## Results of single-concentration screens

Sequences of proteins named here, by UniProt entry; tags and fusion partners are left off.
UniProt P9WPC5, whole entry: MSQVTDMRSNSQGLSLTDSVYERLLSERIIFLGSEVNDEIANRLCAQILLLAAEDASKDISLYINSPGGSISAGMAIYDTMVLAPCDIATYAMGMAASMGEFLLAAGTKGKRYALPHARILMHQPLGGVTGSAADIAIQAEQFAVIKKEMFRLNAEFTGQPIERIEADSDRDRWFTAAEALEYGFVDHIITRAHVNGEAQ
UniProt P9WPC3, whole entry partner: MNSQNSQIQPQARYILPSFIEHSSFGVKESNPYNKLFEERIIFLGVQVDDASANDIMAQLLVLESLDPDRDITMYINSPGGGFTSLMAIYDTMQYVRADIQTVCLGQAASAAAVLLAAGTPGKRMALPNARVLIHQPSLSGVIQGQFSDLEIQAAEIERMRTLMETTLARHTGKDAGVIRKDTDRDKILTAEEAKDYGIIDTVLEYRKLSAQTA
UniProt P9WNZ1, whole entry: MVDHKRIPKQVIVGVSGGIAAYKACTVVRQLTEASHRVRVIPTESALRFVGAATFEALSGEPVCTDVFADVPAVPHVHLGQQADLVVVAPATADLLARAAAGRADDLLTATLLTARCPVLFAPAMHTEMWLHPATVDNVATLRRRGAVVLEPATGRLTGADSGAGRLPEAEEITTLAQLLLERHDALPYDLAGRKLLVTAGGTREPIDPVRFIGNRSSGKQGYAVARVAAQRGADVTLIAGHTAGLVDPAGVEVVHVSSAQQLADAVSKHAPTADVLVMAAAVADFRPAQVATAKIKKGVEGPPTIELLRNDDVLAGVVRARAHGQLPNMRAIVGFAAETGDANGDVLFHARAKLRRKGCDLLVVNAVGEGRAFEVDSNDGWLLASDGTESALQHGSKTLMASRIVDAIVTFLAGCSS

Source: ChEMBL document CHEMBL3988442, “University of Dundee, Small-Polar-MMV Screening Library” (2021).

Toxoplasma: 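Assay of Toxoplasma gondii numbers, read through their beta-galactosidase reporter with a colour substrate. Concentration: 10 µM. Higher reads as fewer parasites (inferred from which compounds were picked for retests). About 67,000 compounds were tested under these conditions; 0.38% (about 260) showed 50% or more at least once.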
ClpP1P2: 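Protease assay of ClpP1P2, read by the AMC dye that it sets free. Target: ClpP1P2, Mycobacterium tuberculosis (UniProt P9WPC5 and UniProt P9WPC3). Compounds at 50 µM. Direction is inferred from only a few compounds that gave an IC50; most scored high, so higher reads as stronger inhibition. Most other retested compounds had strongly negative values. About 69,000 compounds were tested under these conditions; 0.015% (about 10) showed 50% or more at least once.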
T. brucei: 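Whole-parasite assay of Trypanosoma brucei over 72 hours; the read-out is not stated. Concentration: 30 µM. The record gives no direction; compounds that gave an IC50 in retests scored well above the rest, so higher reads as stronger inhibition. Values scatter widely below zero; nearly all retest evidence comes from the higher of the two concentrations used. Size under these conditions: about 64,000 compounds, about 940 of them at 50% or above in at least one test.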
CoaBC: 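Enzyme assay of CoaBC with a phosphate dye (Biomol Green) read at 650 nm. Target: Coenzyme A biosynthesis protein CoaBC, Mycobacterium tuberculosis (UniProt P9WNZ1). Concentration: 30 µM. Direction is inferred from only a few compounds that gave an IC50; most scored high, so higher reads as stronger inhibition. Most strong results did not repeat in a second test. Size under these conditions: about 67,000 compounds, about 40 of them at 50% or above in at least one test.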

Each number is a percent effect as filed. The controls that fix the scale are not given in the record; negative values are as filed. This is an unselected part of the compounds tested.

COCCC(=O)N1CCN(C)c2ncccc2C1 read Toxoplasma: 8.968%; ClpP1P2: -19.3%; T. brucei: -30.42%; CoaBC: 0.9091%.
Cn1cnc(S(=O)(=O)NCC2(O)CCc3ccccc3C2)c1 (stereo not shown) read Toxoplasma: -11.13%; ClpP1P2: 4.504%; T. brucei: -41.76%; CoaBC: 2.101%.
Cc1nc(C)c(CN2CCOC[C@H](Oc3cnccn3)C2)s1 read Toxoplasma: 3.818%; ClpP1P2: -1.243%; T. brucei: 5.053%; CoaBC: 3.226%.
O=C(O)c1cccc(C2CCCN(S(=O)(=O)N3CCOCC3)C2)c1 (stereo not shown) read Toxoplasma: 11.77%; ClpP1P2: 11.57%; T. brucei: -35.98%; CoaBC: 1.717%.
CN(C)Cc1nc2c(o1)CN(S(=O)(=O)c1cccs1)C2.O=C(O)C(F)(F)F read Toxoplasma: -7.632%; T. brucei: 5.819%.
Cc1ncnc2c1CCN(C(=O)c1ccncc1)CC2.O=C(O)C(F)(F)F read Toxoplasma: -4.239%; T. brucei: -55.71%.
CC(C)(C)NC(=O)NC(=O)CN1C=Nc2ccccc2S1(=O)=O read Toxoplasma: -2.493%; ClpP1P2: -24.69%; T. brucei: -0.5287%; CoaBC: 1.434%.
CC(Cn1ccnc1)NS(=O)(=O)Cc1ccc(F)cc1 (stereo not shown) read Toxoplasma: 6.804%; ClpP1P2: 1.959%; T. brucei: 7.184%; CoaBC: -2.174%.
O=C(NCCn1nc(C2CCNC2)c2cccnc21)C1CC1 (stereo not shown) read ClpP1P2: 7.513%; CoaBC: 2.451%.
CCn1cc2c(n1)CN(Cc1ccc(C)o1)CC2COCC1CC1.O=C(O)C(F)(F)F (stereo not shown) read Toxoplasma: -16.44%; T. brucei: -8.342%.
CCc1nccn1C1CCCN(C(=O)c2cnc3ccccc3n2)C1 (stereo not shown) read Toxoplasma: 1.76%; ClpP1P2: -6.457%; T. brucei: 10.1%; CoaBC: 2.024%.
COCC1CN(Cc2ccoc2)Cc2nn(CC3CC3)cc21.O=C(O)C(F)(F)F (stereo not shown) read Toxoplasma: 20.42%; T. brucei: -45.03%.
CCCc1ccc(CN2CCN(C(=O)N(C)C)[C@@H]3CS(=O)(=O)C[C@@H]32)o1 read ClpP1P2: 4.093%; CoaBC: 14.04%.
CC(C)(C)NC(=O)CNC(=O)CCc1ccccc1Br read Toxoplasma: -4.071%; ClpP1P2: -0.345%; T. brucei: 1.568%; CoaBC: 10.13%.
CS(=O)(=O)CCN(CCc1cccc(F)c1)C1CC1 read Toxoplasma: 4.082%; ClpP1P2: -10.39%; T. brucei: -41.91%; CoaBC: 2.479%.
COC(=O)c1ccc(CNCc2ccn(C)n2)cc1 read Toxoplasma: -11.23%; ClpP1P2: 0.1069%; T. brucei: -7.529%; CoaBC: -0.6135%.
CN(CCc1ccccn1)[C@@H]1CCN(c2cccc(C#N)n2)C[C@H]1O read Toxoplasma: 2.155%; ClpP1P2: -13.29%; T. brucei: -9.142%; CoaBC: -14.43%.
O=C(NCc1ccccc1)c1nn(C2CCS(=O)(=O)C2)c2c1CCCC2 (stereo not shown) read Toxoplasma: 24.58%; ClpP1P2: -14.12%; T. brucei: -56.61%; CoaBC: 1.899%.
Cc1cnc(NC(=O)NCCOc2ncccc2Cl)s1 read Toxoplasma: -4.891%; ClpP1P2: -3.783%; T. brucei: -15.4%; CoaBC: 10.2%.
Cc1cc(C(=O)NCc2ccc(N3CCCC(C(N)=O)C3)cc2)on1 (stereo not shown) read Toxoplasma: -8.057%; ClpP1P2: 5.802%; T. brucei: -2.697%; CoaBC: 1.145%.
COCC1CN(S(=O)(=O)c2ccc(C)cc2)Cc2c1cnn2C (stereo not shown) read ClpP1P2: 10.54%.
Cc1ccc(S(=O)(=O)N2CCOCC2C#N)cc1Br (stereo not shown) read Toxoplasma: 1.125%; ClpP1P2: -0.9862%; T. brucei: -26.54%; CoaBC: 2.778%.
COc1cc(NC(=O)NCc2cc(C)oc2C)cc(OC)c1 read Toxoplasma: 8.169%; ClpP1P2: 1.416%; T. brucei: -3.758%; CoaBC: 4.202%.
Cc1cnn(CC2CCCCN2C(=O)c2ccc(CN(C)C)cc2)c1 (stereo not shown) read Toxoplasma: -7.433%; ClpP1P2: -17.5%; CoaBC: 4.7%.

Some entries from above, unchanged:

- COC(=O)c1ccc(CNCc2ccn(C)n2)cc1 | Toxoplasma: -11.23%; ClpP1P2: 0.1069%; T. brucei: -7.529%; CoaBC: -0.6135%
- CCCc1ccc(CN2CCN(C(=O)N(C)C)[C@@H]3CS(=O)(=O)C[C@@H]32)o1 | ClpP1P2: 4.093%; CoaBC: 14.04%